Protein sequences, listed by entry. Tags and fused reporters are not part of them. Lines headed by an entry give the natural chain unless they say otherwise; changes in a name come on top.
UniProt P00740: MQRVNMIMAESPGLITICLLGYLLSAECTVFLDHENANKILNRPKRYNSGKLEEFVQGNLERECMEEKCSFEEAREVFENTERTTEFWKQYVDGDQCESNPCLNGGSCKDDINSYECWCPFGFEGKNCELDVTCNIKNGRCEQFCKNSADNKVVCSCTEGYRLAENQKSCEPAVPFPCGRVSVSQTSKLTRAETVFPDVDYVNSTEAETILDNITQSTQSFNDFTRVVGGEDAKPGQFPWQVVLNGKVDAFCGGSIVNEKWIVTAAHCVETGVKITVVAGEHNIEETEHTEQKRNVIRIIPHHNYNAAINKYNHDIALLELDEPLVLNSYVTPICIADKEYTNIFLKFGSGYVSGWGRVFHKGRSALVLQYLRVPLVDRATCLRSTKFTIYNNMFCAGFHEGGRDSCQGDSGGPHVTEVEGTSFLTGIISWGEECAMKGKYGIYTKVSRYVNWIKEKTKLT

According to USRE50968:

Assays:
[1] = target: Factor IXaβ (Enzyme Research Laboratories) (UniProt P00740); assay: ELISA, Factor IXaβ coated on plate, purified antibody added, alkaline phosphatase-labeled secondary antibody, absorbance at 405 nm
[2] = target: Factor IXaβ (Enzyme Research Laboratories) (UniProt P00740); assay: ELISA on Factor IXa (FIG. 8)

binding [1] | binding [2] | Binder
binds | binds | humanized A69 antibody homodimer having a modified variable region (CDR) (hA69-N97R/hAL-F123j4) (antibody, V domains shown) VH: QVQLVQSGAEVKKPGSSVKVSCKASGGTFSDYYMHWVRQAPGQGLEWMGYINPSSGYTKYNRKFRDRVTITADKSTSTAYMELSSLRSEDTAVYYCARGGRGYYLDYWGQGTTVTVSS VL: DIVMTQSPSSLSASVGDRVTITCKASQNVGTAVAWYQQKPGKAPKLLIYSASYRYSGVPSRFSGSRYGTDFTLTISSLQPEDLATYYCQQYSNYITFGGGTKVEIK
binds | binds | unmodified humanized A69 antibody homodimer (hA69a/hAL-F123j4) (antibody, V domains shown) VH: QVQLVQSGAEVKKPGSSVKVSCKASGGTFSDYYMHWVRQAPGQGLEWMGYINPSSGYTKYNRKFRDRVTITADKSTSTAYMELSSLRSEDTAVYYCARGGNGYYLDYWGQGTTVTVSS VL: DIVMTQSPSSLSASVGDRVTITCKASQNVGTAVAWYQQKPGKAPKLLIYSASYRYSGVPSRFSGSRYGTDFTLTISSLQPEDLATYYCQQYSNYITFGGGTKVEIK

These are yes or no findings as the source states them, for the method shown. Binding calls can cover weak binding; strength is not graded here.
